2 molecules from patent US20040123344A1, “Novel gene encoding an f-box protein which regulates leaf longevity in arabidopsis thaliana and mutant gene thereof” (priority 2000, published 2004) can be followed below.

The chains behind the UniProt entries cited, without tags or fusion partners.
UniProt Q39255: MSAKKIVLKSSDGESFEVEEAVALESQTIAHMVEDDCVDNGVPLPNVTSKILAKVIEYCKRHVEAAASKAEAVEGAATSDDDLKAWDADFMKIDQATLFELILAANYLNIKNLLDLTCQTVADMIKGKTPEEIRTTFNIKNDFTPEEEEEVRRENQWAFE

These are yes or no findings as the source states them, for the method shown. In cells and extracts the contact can be indirect. Some entries that bind do so weakly or less than the wild type.

In the experiment the target is GST-ASK1 fusion protein (Arabidopsis) (UniProt Q39255). Put plainly: in vitro GST pull-down of 35S-labeled protein.

B1: 35S-labeled mutant type ore9 protein, in vitro translated (protein)
chain: MASTTLSDLPDVILSTISSLVSDSRARNSLSLVSHKFLALERSTRSHLTIRGNARDLSLVPDCFRSISHLDLSFLSPWGHTLLASLPIDHQNLLALRLKFCFPFVESLNVYTRSPSSLELLLPQWPRIRHIKLLRWHQRASQIPTGGDFVPIFEHCGGFLESLDLSNFYHWTEDLPPVLLRYADVAARLTRLDLLTASFTEGYKSSEIVSITKSCPNLKTFRVACTFDPRYFEFVGDETLSAVATSSPKLTLLHMVDTASLANPRAIPGTEAGDSAVTAGTLIEVFSGLPNLEELVLDVGKDVKHSGVALEALNSKCKKLRVLKLG
modifications: [35S]-methionine label
As to B1, the binding result is “binds”.

B2: 35S-labeled ORE9 (1-327), in vitro translated (protein)
chain: MASTTLSDLPDVILSTISSLVSDSRARNSLSLVSHKFLALERSTRSHLTIRGNARDLSLVPDCFRSISHLDLSFLSPWGHTLLASLPIDHQNLLALRLKFCFPFVESLNVYTRSPSSLELLLPQWPRIRHIKLLRWHQRASQIPTGGDFVPIFEHCGGFLESLDLSNFYHWTEDLPPVLLRYADVAARLTRLDLLTASFTEGYKSSEIVSITKSCPNLKTFRVACTFDPRYFEFVGDETLSAVATSSPKLTLLHMVDTASLANPRAIPGTEAGDSAVTAGTLIEVFSGLPNLEELVLDVGKDVKHSGVALEALNSKCKKLRVLKLGQ
modifications: [35S]-methionine label
As to B2, the binding result was “binds”.
